# According to patent publication US8987304B2, “Antituberculous composition comprising oxazole compounds” (priority 2005, dated 2015):
# Molecular target: T1, CYP2B6 (Homo sapiens, UniProt P20813)
# T1 sequence (P20813 1-491): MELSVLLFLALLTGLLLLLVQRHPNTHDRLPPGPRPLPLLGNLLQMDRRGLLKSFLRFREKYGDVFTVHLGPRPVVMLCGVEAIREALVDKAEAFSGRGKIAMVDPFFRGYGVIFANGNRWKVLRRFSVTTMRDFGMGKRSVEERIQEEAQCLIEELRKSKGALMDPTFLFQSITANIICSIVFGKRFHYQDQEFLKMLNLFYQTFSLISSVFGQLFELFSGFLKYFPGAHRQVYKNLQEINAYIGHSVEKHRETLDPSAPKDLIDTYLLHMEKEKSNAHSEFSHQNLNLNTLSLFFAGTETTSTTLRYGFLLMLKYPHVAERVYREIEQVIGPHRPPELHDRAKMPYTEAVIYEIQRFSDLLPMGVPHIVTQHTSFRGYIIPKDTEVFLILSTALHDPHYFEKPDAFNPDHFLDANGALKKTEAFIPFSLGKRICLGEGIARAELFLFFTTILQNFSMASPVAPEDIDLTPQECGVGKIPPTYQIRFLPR
# Test: 7-benzyloxyresorufin debenzylation activity in human hepatic microsome
# Settings: liver microsomes, pH 7.4, probe 7-benzyloxyresorufin ([…])
# Procedure: 4-2. Effect of the Oxazole Compound (I) on the Enzymatic Activity of Each Molecular Species of Cytochrome P450 (CYP)
# Basic reaction composition (0.5 ml) was consisting of microsome protein 0.2-1 mg/ml, 100 mM phosphate buffer (pH 7.4), 0.1 mM EDTA, NADPH generation system (2.5 mM β-NADP, 25 mM glucose-6-phosphate, 2 units glucose-6-phosphate dehydrogenase and 10 mM magnesium chloride), with or without each substrate and inhibitor, and the reaction was performed at 37° C. for 10-60 minutes. Each substrate and its concentration used were 7-ethoxyresorufln (0.5 μM), coumarin (2 μM), 7-benzyloxyresorufin (1.5 μM), tolbutamide (400 μM), S-mephenyloin (100 μM), bufuralol (20 μM), chlorzoxazone (100 μM), testosterone (100 μM) and nifedipine (50 μM).
# Generated products after the metabolic response were measured by using high performance liquid chromatography after extraction.
compound,measurement,value
"Cc1ccccc1C(OCCN(C)C)c1ccccc1 (stereo not shown) [orphenadrine, reference compound]",activity at 1000 μM,72%
